Results from article PMC3085091.

The chains behind the UniProt entries cited, without tags or fusion partners. Where a name states a change or a piece, a line headed by the entry shows the natural chain unless it says otherwise.
UniProt P17302: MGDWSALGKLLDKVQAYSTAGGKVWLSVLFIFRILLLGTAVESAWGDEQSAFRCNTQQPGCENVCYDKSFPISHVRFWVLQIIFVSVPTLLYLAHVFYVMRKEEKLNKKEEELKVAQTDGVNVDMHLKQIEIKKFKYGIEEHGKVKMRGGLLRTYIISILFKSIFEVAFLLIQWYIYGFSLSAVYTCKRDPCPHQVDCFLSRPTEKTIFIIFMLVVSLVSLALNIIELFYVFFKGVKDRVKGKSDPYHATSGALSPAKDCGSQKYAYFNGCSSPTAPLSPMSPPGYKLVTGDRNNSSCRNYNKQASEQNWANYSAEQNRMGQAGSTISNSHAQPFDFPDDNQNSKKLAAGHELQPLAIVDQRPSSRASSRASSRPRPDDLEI

Experiments:
[1] = target: T1, cytoplasmic region of desmocollin-2a wild-type, GST fusion protein, bacterially expressed (UniProt Q02487); assay: pull-down; GST pulldown: bacterially expressed GST fusions of the DSC2 cytoplasmic region as bait; GFP fusion of the Cx43 cytoplasmic tail (or GFP alone) expressed in COS-1 cells; only the target purified
T1 sequence: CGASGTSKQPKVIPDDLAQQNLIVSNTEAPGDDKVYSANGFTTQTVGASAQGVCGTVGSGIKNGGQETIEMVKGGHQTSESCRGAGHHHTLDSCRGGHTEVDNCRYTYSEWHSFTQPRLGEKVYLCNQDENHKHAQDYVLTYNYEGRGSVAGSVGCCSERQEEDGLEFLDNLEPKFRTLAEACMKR

[2] = target: full-length desmocollin-2a wild-type, transfected (UniProt Q02487); assay: co-IP; full-length DSC2a WT or mutant, co-immunoprecipitation with plakoglobin; empty vector as control

For “connexin43 cytoplasmic tail (CT), green fluorescent protein (GFP) fusion protein (from UniProt P17302) (domain or fragment)”, the binding [1] was “binds”.

B1: plakoglobin in the co-immunoprecipitation with full-length DSC2a (protein, UniProt P14923 1-745)
chain: MEVMNLMEQPIKVTEWQQTYTYDSGIHSGANTCVPSVSSKGIMEEDEACGRQYTLKKTTTYTQGVPPSQGDLEYQMSTTARAKRVREAMCPGVSGEDSSLLLATQVEGQATNLQRLAEPSQLLKSAIVHLINYQDDAELATRALPELTKLLNDEDPVVVTKAAMIVNQLSKKEASRRALMGSPQLVAAVVRTMQNTSDLDTARCTTSILHNLSHHREGLLAIFKSGGIPALVRMLSSPVESVLFYAITTLHNLLLYQEGAKMAVRLADGLQKMVPLLNKNNPKFLAITTDCLQLLAYGNQESKLIILANGGPQALVQIMRNYSYEKLLWTTSRVLKVLSVCPSNKPAIVEAGGMQALGKHLTSNSPRLVQNCLWTLRNLSDVATKQEGLESVLKILVNQLSVDDVNVLTCATGTLSNLTCNNSKNKTLVTQNSGVEALIHAILRAGDKDDITEPAVCALRHLTSRHPEAEMAQNSVRLNYGIPAIVKLLNQPNQWPLVKATIGLIRNLALCPANHAPLQEAAVIPRLVQLLVKAHQDAQRHVAAGTQQPYTDGVRMEEIVEGCTGALHILARDPMNRMEIFRLNTIPLFVQLLYSSVENIQRVAAGVLCELAQDKEAADAIDAEGASAPLMELLHSRNEGTATYAAAVLFRISEDKNPDYRKRVSVELTNSLFKHDPAAWEAAQSMIPINEPYGDDMDATYRPMYSSDVPLDPLEMHMDMDGDYPIDTYSDGLRPPYPTADHMLA
B1 was tested, and the binding [2] was “binds”.

No constants are given. Whether binding was seen depends on the method and setting. In cells and extracts the contact can be indirect. Binding can be weak; no strength is given. For some assays here: Sequences can lack the tags named with a protein.
